Reference: patent US20260209298A1
Results are given in words; binding and its absence hold for the method and conditions named. Binding seen in cells or lysates may run through a third protein. Some results given as binding are weak or reduced against the parent protein; the word gives no strength.

Sequences of proteins named here, by UniProt entry; tags and fusion partners are left off. A change or cut given only in a name is not applied to a line headed by its entry. Residues count along the entry.
UniProt P53350, residues 2-603: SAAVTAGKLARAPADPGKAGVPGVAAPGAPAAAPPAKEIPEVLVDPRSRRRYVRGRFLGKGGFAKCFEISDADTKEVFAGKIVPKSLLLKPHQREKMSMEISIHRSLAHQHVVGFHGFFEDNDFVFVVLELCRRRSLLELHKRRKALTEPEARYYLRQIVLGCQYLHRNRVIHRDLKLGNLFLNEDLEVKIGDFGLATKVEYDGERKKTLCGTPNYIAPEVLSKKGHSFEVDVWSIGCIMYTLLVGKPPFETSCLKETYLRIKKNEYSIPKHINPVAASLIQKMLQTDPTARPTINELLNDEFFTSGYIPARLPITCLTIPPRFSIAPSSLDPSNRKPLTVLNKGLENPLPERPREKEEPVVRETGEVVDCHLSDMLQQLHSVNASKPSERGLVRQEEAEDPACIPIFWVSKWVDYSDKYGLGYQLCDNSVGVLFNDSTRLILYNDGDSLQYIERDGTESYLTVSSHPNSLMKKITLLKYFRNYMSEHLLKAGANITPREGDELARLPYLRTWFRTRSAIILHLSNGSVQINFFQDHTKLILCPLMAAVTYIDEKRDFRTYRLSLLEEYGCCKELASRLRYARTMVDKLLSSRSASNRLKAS
UniProt P24593: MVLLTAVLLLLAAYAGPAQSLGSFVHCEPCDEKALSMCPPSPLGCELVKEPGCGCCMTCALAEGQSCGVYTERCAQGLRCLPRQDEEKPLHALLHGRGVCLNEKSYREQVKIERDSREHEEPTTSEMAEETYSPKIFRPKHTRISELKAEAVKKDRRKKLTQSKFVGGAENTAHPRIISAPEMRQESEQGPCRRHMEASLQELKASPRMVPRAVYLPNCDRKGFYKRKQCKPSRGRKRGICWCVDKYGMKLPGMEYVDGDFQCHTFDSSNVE

Tests used:
[1] = biological target: PLK1 (Polo-like kinase 1), endogenous protein in A549 and H460 cell lysates (UniProt P53350); test: co-immunoprecipitation after TGF-β treatment (summary of Example 4)
[2] = biological target: PLK1 (Polo-like kinase 1), endogenous protein in A549 and H460 cell lysates (UniProt P53350); test: co-immunoprecipitation with PLK1 antibody, A549 cells treated with 5 ng/ml TGF-β
[3] = biological target: PLK1 (Polo-like kinase 1), endogenous protein in A549 and H460 cell lysates (UniProt P53350); test: co-immunoprecipitation with PLK1 antibody, H460 cells treated with 2.5 ng/ml TGF-β
[4] = biological target: PLK1 (Polo-like kinase 1), endogenous protein in A549 and H460 cell lysates (UniProt P53350); test: co-immunoprecipitation with PLK1 antibody and agarose beads from A549 and H460 lysates, immunoblot

Measured: binding

IGFBP5 (insulin-like growth factor binding protein 5), wild type, endogenous protein in A549 and H460 cell lysates (from UniProt P24593 21-272)
binds: all assays above
